Five molecules from patent publication US20220242906A1 can be followed below.

The chains behind the UniProt entries cited, without tags or fusion partners. Residues count along the entry.
UniProt P06730, residues 2-217: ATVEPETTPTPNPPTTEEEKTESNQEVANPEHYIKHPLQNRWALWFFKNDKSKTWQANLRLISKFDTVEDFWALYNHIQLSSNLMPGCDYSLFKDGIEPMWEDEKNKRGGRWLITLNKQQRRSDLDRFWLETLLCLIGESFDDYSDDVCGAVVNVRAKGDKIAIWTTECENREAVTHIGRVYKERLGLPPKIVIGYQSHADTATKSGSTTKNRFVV

For assay [1], the target named is elongation initiation factor 4E (eIF4E) (UniProt P06730). The assay is described as follows: NGS-enhanced phage display: C7C peptide on M13 pIII selected on immobilised biotinylated eIF4E, three replicate selections, enrichment against control selections on MDM2 and eIF4A.
Assay [2] shares this target. The assay is described as follows: SPR. (Surface plasmon resonance follows binding to a sensor surface in real time, without labels.)
For assay [3] the target is unchanged. The assay is described as follows: tryptophan quenching of eIF4E (1 µM), excitation 290 nm, emission 355 nm.
For assay [4] the target is unchanged. Briefly: tryptophan quenching of eIF4E (1 uM eIF4E, 0.01-20 uM peptide).
For assay [5] the target is unchanged. Briefly: competitive fluorescence anisotropy, panel 'Peptide Interaction Site': displacement of the FAM labelled tracer peptide …-(FAM) (50 nM) from eIF4E (200 nM) [cont'd) B].

Results are given in words; binding and its absence hold for the method and conditions named. Some results given as binding are weak or reduced against the parent protein; the word gives no strength.

Turning to ACIHSPTSLCG (C2-C10 disulphide bond (C7C constrained loop)) [Peptide 45], the binding entry in assay [1] was “binds”.
With ACEMGYFGNCG (C2-C10 disulphide bond (C7C constrained loop)) [EE-9], the binding result in assay [1] is “binds”.
For ACEMGFYQDCG (free N-terminal amine; C-terminal amide; disulphide bond between Cys2 and Cys10) [EE-35 (…)], the binding result in assay [2] is given as “binds”.
The same measure, in the same setting: for ACEMGYFQDCG (free N-terminal amine; C-terminal amide; disulphide bond between Cys2 and Cys10) [EE-30 (…)] the value was “binds”.
KKRYSRDQLVAL [PHAGESOL (…)]: the binding result in assay [3], in assay [4] and in assay [5] was “binds” throughout.
